{"source": "PubChem BioAssay AID1487", "about": "(National Center for Advancing Translational Sciences (NCATS), 2009)", "test": "qHTS Assay for Modulators of Lamin A Splicing", "settings": "HeLa LMNA splicing GFP/RFP minigene ratio, 48 h", "method_in_brief": "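Read-out is the ratio of GFP to DsRed2 object intensity, acquired by 488 nm laser-scanning cytometry on HeLa lamin A-EGFP minigene reporter cells. Compound incubation 48 hrs at 37 °C in Opti-MEM with 2% FBS; DMSO 0.5% final.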", "key": {"[1]": {"settings": "measured here: RFP viability control channel"}, "[2]": {"settings": "measured here: GFP splicing reporter channel"}}, "note": "The list shows a part of the results. Shown are side measurements of this screen, not its main read-out; they come without a call. The list favours compounds with an active or inconclusive main result. Potencies come from curve fits of mixed quality, noted in brackets.", "data": [{"compound": "Cc1ccc(-n2c(C)cc(/C=N/NC(N)=S)c2C)cc1", "values": [{"measurement": "AC50", "setting": "[1]", "value": "14.1 µM [rising, single point]"}]}, {"compound": "C=CCN1C(=O)/C(=C/c2ccc(O)c(OC)c2)S/C1=N/c1nccs1", "values": [{"measurement": "AC50", "setting": "[2]", "value": "12.6 µM [rising, partial curve, poor fit]"}, {"measurement": "AC50", "setting": "[1]", "value": "25.1 µM [rising, single point]"}]}, {"compound": "COc1ccc(C(CNC(=O)/C=C/c2c(Cl)nc3ccccn23)N(C)C)cc1", "note": "(configuration not stated)", "values": [{"measurement": "AC50", "setting": "[2]", "value": "12.6 µM [falling, single point]"}]}, {"compound": "COc1cccc(-c2cncnc2NCCc2c[nH]c3ccc(OC)cc23)c1", "values": [{"measurement": "AC50", "setting": "[2]", "value": "7.08 µM [falling, partial curve]"}, {"measurement": "AC50", "setting": "[1]", "value": "8.91 µM [falling, partial curve, poor fit]"}]}, {"compound": "COc1cc(N)c(Cl)cc1C(=O)N[C@H]1CCN(CCCOc2ccc(F)cc2)C[C@H]1OC", "values": [{"measurement": "AC50", "setting": "[2]", "value": "0.562 µM [falling, full curve, poor fit]"}]}, {"compound": "COc1ccc(NC(=O)Cn2cnc3c(oc4ccccc43)c2=O)cc1OC", "values": [{"measurement": "AC50", "setting": "[2]", "value": "1.12 µM [rising, full curve]"}]}, {"compound": "C/C(CC(=O)NC(C)C)=N\\NC(=O)C(c1ccccc1)c1ccccc1", "values": [{"measurement": "AC50", "setting": "[1]", "value": "12.6 µM [falling, partial curve, poor fit]"}]}, {"compound": "Cc1ccc(-n2nc3cc(C)c(NC(=S)NC(=O)/C=C/c4ccco4)cc3n2)cc1", "values": [{"measurement": "AC50", "setting": "[2]", "value": "22.4 µM [rising, single point]"}]}, {"compound": "Cc1ccc(/C=N/NC(=O)Cn2cnc3ccccc32)cc1", "values": [{"measurement": "AC50", "setting": "[1]", "value": "5.62 µM [rising, single point]"}]}, {"compound": "CCOC(=O)C1CCN(CC(=O)Nc2ccc(OC)c(Cl)c2)CC1", "values": [{"measurement": "AC50", "setting": "[1]", "value": "0.251 µM [rising, partial curve]"}]}, {"compound": "CCN(CC)S(=O)(=O)c1ccc2oc(SCc3ccc(F)cc3)nc2c1", "values": [{"measurement": "AC50", "setting": "[1]", "value": "2 µM [rising, partial curve]"}]}, {"compound": "Fc1ccc(N2CCN(Cc3ccccn3)CC2)cc1", "values": [{"measurement": "AC50", "setting": "[1]", "value": "3.98 µM [rising, single point]"}]}, {"compound": "CC(C)(C)NC(=O)[C@H]1CC[C@H]2[C@@H]3CC[C@H]4NC(=O)C=C[C@]4(C)[C@H]3CC[C@]12C", "values": [{"measurement": "AC50", "setting": "[1]", "value": "5.62 µM [falling, single point]"}]}, {"compound": "COc1ccccc1N1CCN(c2nc(-c3ccc(C)cc3)nc3ccccc23)CC1", "values": [{"measurement": "AC50", "setting": "[1]", "value": "2 µM [rising, full curve, poor fit]"}]}, {"compound": "COc1cccc2cc(C(=O)N(Cc3cccs3)CC3CCCO3)c(=O)oc12", "note": "(configuration not stated)", "values": [{"measurement": "AC50", "setting": "[2]", "value": "0.794 µM [rising, single point]"}]}, {"compound": "CCSC1=N/C(=C/c2ccsc2)C(=O)N1c1ccccc1", "values": [{"measurement": "AC50", "setting": "[2]", "value": "31.6 µM [rising, single point]"}, {"measurement": "AC50", "setting": "[1]", "value": "12.6 µM [rising, partial curve, poor fit]"}]}, {"compound": "CCOC(=O)c1csc(NC(=O)c2ccc(S(=O)(=O)N(CC)CC)cc2)n1", "values": [{"measurement": "AC50", "setting": "[1]", "value": "11.2 µM [rising, partial curve]"}]}, {"compound": "Nc1nnc(CC(=O)N/N=C/c2ccc(-c3ccccc3)o2)s1", "values": [{"measurement": "AC50", "setting": "[1]", "value": "0.141 µM [rising, full curve, poor fit]"}]}, {"compound": "CCCCn1c(=N)n(CC(O)COc2ccc(C)cc2)c2ccccc21", "note": "(configuration not stated)", "values": [{"measurement": "AC50", "setting": "[1]", "value": "35.5 µM [rising, single point]"}]}, {"compound": "CCN(CC)S(=O)(=O)c1ccc(C(=O)NCCSc2c[nH]c3ccccc23)cc1", "values": [{"measurement": "AC50", "setting": "[1]", "value": "25.1 µM [rising, single point]"}]}, {"compound": "CCCc1ccc(-c2cc(C(=O)NC3=NCCS3)c3ccccc3n2)cc1", "values": [{"measurement": "AC50", "setting": "[2]", "value": "12.6 µM [rising, single point]"}, {"measurement": "AC50", "setting": "[1]", "value": "14.1 µM [rising, partial curve]"}]}, {"compound": "COc1ccccc1CC(=O)NNS(=O)(=O)c1ccccc1[N+](=O)[O-]", "values": [{"measurement": "AC50", "setting": "[2]", "value": "4.47 µM [falling, full curve, poor fit]"}, {"measurement": "AC50", "setting": "[1]", "value": "4.47 µM [falling, single point]"}]}, {"compound": "CCOc1ccccc1C(=O)Nc1nc2c(s1)CC(C)CC2", "note": "(configuration not stated)", "values": [{"measurement": "AC50", "setting": "[1]", "value": "35.5 µM [falling, partial curve, poor fit]"}]}, {"compound": "CCCOc1ccc(C(=O)c2nc3c(n2O)CCCCC3)cc1", "values": [{"measurement": "AC50", "setting": "[1]", "value": "17.8 µM [rising, single point]"}]}, {"compound": "COc1cc2c(cc1NC(=O)c1cccc(S(=O)(=O)N(C)C)c1)oc1ccccc12", "values": [{"measurement": "AC50", "setting": "[2]", "value": "35.5 µM [rising, single point]"}, {"measurement": "AC50", "setting": "[1]", "value": "35.5 µM [rising, single point]"}]}, {"compound": "Fc1ccc(CSc2nnc(-c3ccncc3)o2)cc1", "values": [{"measurement": "AC50", "setting": "[2]", "value": "6.31 µM [falling, single point]"}]}, {"compound": "COc1ccc(C(=O)Nn2c(CCC(=O)O)ccc2-c2ccc(C)cc2)cc1OC", "values": [{"measurement": "AC50", "setting": "[2]", "value": "35.5 µM [falling, partial curve, poor fit]"}]}, {"compound": "Clc1ccc(OCc2nnc(SCc3nc4ccccc4[nH]3)n2Cc2ccco2)cc1", "values": [{"measurement": "AC50", "setting": "[1]", "value": "10 µM [rising, partial curve]"}]}, {"compound": "Cc1noc(C)c1COc1ccc(C(=O)Nc2ccccc2)cc1", "values": [{"measurement": "AC50", "setting": "[2]", "value": "0.794 µM [rising, partial curve, poor fit]"}, {"measurement": "AC50", "setting": "[1]", "value": "0.316 µM [rising, full curve, poor fit]"}]}, {"compound": "COc1cc(-c2nnc(SCc3c(F)cccc3Cl)o2)cc(OC)c1OC", "values": [{"measurement": "AC50", "setting": "[1]", "value": "31.6 µM [rising, single point]"}]}, {"compound": "CCC(CC)NC(=O)/C=C/c1ccccc1Cl", "values": [{"measurement": "AC50", "setting": "[2]", "value": "8.91 µM [rising, partial curve, poor fit]"}, {"measurement": "AC50", "setting": "[1]", "value": "20 µM [rising, partial curve, poor fit]"}]}, {"compound": "CC(=O)Nc1ccc(S(=O)(=O)N2CCN(CCCOc3ccccc3Cl)CC2)cc1", "values": [{"measurement": "AC50", "setting": "[1]", "value": "15.8 µM [rising, single point]"}]}, {"compound": "CN(CC(=O)Nc1nc2ccccc2s1)S(=O)(=O)c1ccc(Br)cc1", "values": [{"measurement": "AC50", "setting": "[2]", "value": "31.6 µM [rising, single point]"}, {"measurement": "AC50", "setting": "[1]", "value": "35.5 µM [rising, single point]"}]}, {"compound": "c1ccc(Nc2nc(-c3ccc4c(c3)OCO4)nc3ccccc23)cc1", "values": [{"measurement": "AC50", "setting": "[2]", "value": "15.8 µM [falling, partial curve]"}, {"measurement": "AC50", "setting": "[1]", "value": "17.8 µM [falling, partial curve]"}]}, {"compound": "CCCNc1nc2c(c(=O)n(C)c(=O)n2C)n1Cc1ccc(F)cc1", "values": [{"measurement": "AC50", "setting": "[1]", "value": "14.1 µM [rising, single point]"}]}, {"compound": "COc1ccc(-n2c(Cc3cccn3C)nnc2SCC(=O)Nc2ccc(F)cc2)cc1", "values": [{"measurement": "AC50", "setting": "[1]", "value": "0.708 µM [falling, partial curve, poor fit]"}]}, {"compound": "O=C(CCN1CCOCC1)NNC(=S)NC(=O)c1ccc(Br)cc1", "values": [{"measurement": "AC50", "setting": "[1]", "value": "35.5 µM [rising, single point]"}]}]}
